Earlier results in US12090220B2, “Efficient sunscreen compositions with diethylamino hydroxybenzoyl hexyl benzoate, butyl methoxydibenzoylmethane and organic particulate UV filter” (BASF SE, priority 2019, dated 2024).
At least one structure is not confirmed: it was looked up by name or label, or the drawing left a doubt.

Conditions: general description of the UV filter; cited from earlier work

For `CCCCC(CC)COC(=O)C(C#N)=C(c1ccccc1)c1ccccc1` (stereo not shown) [octocrylene, Ethylhexyl-2-cyano-3,3-diphenyl-acrylate], which absorption maximum is on record?
Its absorption maximum is 302 nm.
